Literature values, collected in article PMC5087393, “A Toolbox of Genetically Encoded FRET-Based Biosensors for Rapid L-Lysine Analysis” (Sensors (Basel, Switzerland), 2016).

System: LAO-binding protein of E. coli
Conditions: read-out: Kd (equilibrium dialysis); without permutation and fluorescent proteins; 10 mM KPi buffer, pH 7.0, 50 mM NaCl

NCCC[C@H](N)C(=O)O [ornithine]
Kd: 5 µM
